Reference: the supplement of paper PMC10849652
The other results are listed elsewhere or left out.

Sequences of proteins named here, by UniProt entry; tags and fusion partners are left off. A change or cut given only in a name is not applied to a line headed by its entry.
UniProt P17535: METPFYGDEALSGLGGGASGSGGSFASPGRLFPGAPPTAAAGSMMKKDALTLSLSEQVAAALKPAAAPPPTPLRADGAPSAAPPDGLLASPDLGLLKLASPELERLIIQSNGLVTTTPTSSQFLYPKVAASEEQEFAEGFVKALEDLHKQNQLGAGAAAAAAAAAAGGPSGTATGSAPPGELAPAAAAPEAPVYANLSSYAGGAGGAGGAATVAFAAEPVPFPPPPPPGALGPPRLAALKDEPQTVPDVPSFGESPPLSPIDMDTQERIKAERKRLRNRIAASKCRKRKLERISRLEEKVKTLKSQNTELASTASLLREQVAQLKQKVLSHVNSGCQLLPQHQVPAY
UniProt Q15652: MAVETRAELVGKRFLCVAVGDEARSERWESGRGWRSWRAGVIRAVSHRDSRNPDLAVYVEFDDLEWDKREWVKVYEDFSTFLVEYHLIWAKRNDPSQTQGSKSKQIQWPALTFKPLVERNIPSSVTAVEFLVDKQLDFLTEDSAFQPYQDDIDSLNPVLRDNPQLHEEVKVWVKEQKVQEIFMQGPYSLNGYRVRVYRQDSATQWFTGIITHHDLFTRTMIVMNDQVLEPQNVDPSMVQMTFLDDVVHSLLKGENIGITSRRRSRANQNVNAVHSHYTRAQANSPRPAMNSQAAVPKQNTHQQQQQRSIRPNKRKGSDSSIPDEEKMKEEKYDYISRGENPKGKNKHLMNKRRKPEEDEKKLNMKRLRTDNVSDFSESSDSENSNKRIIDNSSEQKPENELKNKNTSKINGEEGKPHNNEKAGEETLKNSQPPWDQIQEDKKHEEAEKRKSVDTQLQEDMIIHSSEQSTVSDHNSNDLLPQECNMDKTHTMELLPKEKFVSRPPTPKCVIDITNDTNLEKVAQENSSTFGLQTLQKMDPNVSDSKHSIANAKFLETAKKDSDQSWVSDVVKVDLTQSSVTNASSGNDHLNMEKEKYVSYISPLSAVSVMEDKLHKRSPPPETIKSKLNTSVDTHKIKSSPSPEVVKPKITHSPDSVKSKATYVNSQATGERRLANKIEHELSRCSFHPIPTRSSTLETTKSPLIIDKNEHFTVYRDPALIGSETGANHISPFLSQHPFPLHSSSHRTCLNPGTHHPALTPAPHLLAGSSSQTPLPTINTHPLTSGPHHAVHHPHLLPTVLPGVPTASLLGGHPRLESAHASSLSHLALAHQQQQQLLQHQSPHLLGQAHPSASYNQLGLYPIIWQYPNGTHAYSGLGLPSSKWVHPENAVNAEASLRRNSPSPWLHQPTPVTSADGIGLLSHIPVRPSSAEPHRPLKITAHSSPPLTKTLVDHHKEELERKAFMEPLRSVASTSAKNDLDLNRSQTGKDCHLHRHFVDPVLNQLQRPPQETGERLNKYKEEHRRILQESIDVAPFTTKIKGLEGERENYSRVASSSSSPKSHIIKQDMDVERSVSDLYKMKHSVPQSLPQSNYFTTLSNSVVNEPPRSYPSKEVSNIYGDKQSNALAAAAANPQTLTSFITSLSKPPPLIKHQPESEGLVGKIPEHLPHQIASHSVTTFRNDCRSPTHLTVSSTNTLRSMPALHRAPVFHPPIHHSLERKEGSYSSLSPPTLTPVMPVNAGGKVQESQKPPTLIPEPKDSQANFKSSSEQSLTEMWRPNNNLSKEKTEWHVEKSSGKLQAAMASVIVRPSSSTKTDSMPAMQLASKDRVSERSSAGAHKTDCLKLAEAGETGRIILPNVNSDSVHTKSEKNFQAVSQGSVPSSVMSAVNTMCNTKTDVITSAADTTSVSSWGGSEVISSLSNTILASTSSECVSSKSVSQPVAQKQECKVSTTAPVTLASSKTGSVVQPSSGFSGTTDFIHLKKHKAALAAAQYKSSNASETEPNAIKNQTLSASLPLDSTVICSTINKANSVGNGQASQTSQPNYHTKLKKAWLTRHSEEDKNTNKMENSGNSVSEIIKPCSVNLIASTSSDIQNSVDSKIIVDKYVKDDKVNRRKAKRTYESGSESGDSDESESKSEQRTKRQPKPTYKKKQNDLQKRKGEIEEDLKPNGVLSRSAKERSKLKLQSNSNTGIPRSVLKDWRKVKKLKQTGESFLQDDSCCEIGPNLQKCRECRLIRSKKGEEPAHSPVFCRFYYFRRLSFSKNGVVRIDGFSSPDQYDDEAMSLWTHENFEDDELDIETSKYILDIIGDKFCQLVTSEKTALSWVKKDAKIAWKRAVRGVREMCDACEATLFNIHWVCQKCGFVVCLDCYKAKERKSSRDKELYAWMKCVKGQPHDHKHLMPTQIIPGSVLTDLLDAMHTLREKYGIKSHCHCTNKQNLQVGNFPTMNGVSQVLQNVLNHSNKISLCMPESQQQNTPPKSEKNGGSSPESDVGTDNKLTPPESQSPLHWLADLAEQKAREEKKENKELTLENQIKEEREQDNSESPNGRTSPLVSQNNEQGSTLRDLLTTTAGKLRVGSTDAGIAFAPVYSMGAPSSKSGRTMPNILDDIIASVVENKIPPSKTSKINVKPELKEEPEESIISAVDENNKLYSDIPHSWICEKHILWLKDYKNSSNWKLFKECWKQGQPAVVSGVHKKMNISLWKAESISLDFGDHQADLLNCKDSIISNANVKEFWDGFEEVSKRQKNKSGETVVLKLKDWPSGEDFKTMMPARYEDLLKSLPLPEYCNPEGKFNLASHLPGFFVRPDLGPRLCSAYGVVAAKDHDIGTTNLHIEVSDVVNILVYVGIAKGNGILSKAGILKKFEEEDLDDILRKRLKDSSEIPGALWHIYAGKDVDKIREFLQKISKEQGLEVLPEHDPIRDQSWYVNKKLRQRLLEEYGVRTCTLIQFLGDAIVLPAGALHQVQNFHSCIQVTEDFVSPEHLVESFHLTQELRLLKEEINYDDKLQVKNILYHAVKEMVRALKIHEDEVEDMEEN
UniProt Q9Y597: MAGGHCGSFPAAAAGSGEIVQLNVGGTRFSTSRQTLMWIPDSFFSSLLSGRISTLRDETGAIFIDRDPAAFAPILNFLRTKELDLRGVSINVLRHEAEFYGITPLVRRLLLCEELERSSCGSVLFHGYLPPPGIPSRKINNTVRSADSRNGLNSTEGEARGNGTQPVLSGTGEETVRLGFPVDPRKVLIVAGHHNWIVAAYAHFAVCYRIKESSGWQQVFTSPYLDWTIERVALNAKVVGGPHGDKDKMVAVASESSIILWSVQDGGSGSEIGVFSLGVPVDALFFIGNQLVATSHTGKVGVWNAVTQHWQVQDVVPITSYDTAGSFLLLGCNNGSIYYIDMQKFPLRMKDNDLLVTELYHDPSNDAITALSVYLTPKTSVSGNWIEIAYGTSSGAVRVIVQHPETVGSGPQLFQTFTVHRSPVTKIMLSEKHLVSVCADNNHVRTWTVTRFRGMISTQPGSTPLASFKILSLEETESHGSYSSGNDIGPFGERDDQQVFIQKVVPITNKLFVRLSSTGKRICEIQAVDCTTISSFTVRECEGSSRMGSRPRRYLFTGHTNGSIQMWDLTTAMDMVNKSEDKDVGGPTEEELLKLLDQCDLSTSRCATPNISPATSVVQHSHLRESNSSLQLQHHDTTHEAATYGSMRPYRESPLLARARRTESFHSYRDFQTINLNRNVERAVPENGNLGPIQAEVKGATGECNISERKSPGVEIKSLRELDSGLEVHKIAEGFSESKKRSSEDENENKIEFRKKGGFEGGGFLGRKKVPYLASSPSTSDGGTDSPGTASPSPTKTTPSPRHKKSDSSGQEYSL
UniProt O00139: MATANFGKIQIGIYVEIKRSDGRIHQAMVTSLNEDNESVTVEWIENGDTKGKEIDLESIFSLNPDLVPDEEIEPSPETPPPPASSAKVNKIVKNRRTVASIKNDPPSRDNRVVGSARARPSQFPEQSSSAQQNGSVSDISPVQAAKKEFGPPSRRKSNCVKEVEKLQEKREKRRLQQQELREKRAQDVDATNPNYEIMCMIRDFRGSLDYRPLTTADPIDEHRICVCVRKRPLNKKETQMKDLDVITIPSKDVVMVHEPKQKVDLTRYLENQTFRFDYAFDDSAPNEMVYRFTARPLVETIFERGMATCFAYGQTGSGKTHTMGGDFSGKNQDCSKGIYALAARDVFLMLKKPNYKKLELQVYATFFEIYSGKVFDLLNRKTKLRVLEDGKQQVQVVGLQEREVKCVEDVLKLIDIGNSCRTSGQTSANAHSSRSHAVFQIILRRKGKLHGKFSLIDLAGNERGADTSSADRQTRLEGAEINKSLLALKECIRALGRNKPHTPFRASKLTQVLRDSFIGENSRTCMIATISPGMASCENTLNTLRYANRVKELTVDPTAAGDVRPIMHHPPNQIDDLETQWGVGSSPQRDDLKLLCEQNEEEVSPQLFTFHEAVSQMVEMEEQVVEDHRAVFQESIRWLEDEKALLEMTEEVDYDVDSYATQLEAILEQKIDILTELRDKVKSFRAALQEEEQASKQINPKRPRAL
UniProt Q8IZA0: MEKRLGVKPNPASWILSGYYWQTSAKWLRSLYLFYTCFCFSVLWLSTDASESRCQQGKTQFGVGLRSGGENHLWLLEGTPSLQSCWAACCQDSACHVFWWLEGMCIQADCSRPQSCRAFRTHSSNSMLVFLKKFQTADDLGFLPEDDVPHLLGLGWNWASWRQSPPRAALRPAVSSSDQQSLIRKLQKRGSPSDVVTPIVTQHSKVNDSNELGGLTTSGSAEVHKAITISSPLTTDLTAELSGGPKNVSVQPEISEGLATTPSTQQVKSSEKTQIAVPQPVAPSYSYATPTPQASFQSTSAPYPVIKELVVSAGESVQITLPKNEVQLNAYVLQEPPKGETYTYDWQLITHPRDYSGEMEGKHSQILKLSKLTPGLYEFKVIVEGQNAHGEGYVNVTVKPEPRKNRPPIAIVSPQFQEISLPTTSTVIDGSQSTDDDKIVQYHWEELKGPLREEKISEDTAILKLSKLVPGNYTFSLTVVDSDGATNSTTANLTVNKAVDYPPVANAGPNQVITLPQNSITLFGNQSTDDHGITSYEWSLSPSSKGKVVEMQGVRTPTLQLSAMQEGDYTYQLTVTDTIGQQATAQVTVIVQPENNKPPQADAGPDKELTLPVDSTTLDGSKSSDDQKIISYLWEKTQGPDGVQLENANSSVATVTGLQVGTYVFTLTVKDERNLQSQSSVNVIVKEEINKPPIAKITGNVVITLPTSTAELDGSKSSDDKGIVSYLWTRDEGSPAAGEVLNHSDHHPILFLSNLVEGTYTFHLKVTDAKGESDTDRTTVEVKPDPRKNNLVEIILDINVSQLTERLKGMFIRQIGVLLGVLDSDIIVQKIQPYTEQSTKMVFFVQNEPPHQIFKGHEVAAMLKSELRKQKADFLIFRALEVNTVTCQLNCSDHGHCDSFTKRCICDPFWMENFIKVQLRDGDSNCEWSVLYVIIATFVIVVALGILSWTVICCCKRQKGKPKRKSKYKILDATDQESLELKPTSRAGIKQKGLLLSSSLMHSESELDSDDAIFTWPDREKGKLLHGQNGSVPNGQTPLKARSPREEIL
UniProt Q674X7: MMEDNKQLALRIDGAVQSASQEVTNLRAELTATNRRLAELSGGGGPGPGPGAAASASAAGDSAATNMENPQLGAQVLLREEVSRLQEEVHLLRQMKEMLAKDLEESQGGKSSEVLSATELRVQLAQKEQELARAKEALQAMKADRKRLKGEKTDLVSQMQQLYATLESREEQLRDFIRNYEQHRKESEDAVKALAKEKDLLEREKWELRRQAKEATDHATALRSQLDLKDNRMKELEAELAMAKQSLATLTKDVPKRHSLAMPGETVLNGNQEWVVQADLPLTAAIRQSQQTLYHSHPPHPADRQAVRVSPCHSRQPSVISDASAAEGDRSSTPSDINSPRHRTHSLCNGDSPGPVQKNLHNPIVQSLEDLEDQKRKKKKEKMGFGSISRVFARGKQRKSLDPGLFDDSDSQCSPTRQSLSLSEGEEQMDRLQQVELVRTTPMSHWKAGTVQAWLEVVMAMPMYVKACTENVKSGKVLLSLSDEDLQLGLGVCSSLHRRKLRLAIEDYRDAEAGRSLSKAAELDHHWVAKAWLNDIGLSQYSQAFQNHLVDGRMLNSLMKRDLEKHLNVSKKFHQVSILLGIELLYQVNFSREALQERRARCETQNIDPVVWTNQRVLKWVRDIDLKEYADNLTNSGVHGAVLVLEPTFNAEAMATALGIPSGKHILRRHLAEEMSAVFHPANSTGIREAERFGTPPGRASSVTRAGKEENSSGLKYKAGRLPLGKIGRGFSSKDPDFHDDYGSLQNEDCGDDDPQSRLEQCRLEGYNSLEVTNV
UniProt Q06136: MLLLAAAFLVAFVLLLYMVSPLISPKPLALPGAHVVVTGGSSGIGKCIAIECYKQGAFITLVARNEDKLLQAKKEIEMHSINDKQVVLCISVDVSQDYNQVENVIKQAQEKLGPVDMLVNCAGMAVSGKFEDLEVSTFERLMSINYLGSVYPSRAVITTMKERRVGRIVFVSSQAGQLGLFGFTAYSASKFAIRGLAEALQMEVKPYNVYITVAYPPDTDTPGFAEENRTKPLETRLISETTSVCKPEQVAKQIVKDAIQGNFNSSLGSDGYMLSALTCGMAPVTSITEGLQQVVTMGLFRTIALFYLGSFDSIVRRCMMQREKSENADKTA

compound: CC1=NC(=CC=C1)C2=C(N=C(N2)C(C)(C)C)C3=CC4=NC=CN=C4C=C3; experiment: log2 fold change, soluble protein after heating vs DMSO (PISA); higher = thermal stabilisation; K562 cells, 10 uM, 30 min; active = over 0.2 and 3.5 SD of the protein, either way, in both replicates (recomputed)
How it was run: (§1)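 Aliquots of K562 cells (2×10^6 cells/mL) treated with 10 μM compound for 30 min were heated for 3 min over 48°C-58°C. After pooling and extraction in PBS with 0.5% NP-40 at 4°C, soluble protein from a 21,000xg, 90 min spin was quantified by TMTpro 16plex LC-MS/MS with channel sums equalised. Thermal stability is expressed against control samples, from duplicates, as a log2 fold change.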

Which log2 fold change does the source give for KATNB1 (UniProt Q9BVA0) here?
The log2 fold change was inactive: 0.04.

For KMT2D isoform 3 (UniProt O14686), which log2 fold change is on record?
Its log2 fold change is inactive: -0.032.

Which log2 fold change does the source give for KCMF1 (UniProt Q9P0J7) here?
Its log2 fold change is inactive: -0.02.

For JPT1 (UniProt Q9UK76), which log2 fold change is on record?
The log2 fold change was inactive: 0.029.

JUND (UniProt P17535) was tested. Which log2 fold change did it give?
The log2 fold change was inactive: -0.073.

For JMJD1C (UniProt Q15652), which log2 fold change is on record?
Its log2 fold change is inactive: 0.04.

KDM8 isoform 3 (UniProt Q8N371) was tested. Which log2 fold change did it give?
Its log2 fold change is inactive: 0.05.

How did the log2 fold change turn out when JAGN1 (UniProt Q8N5M9) was run?
The log2 fold change was inactive: -0.061.

Which log2 fold change does the source give for KIDINS220 (UniProt Q9ULH0) here?
Its log2 fold change is inactive: -0.028.

KCTD15 (UniProt Q96SI1) was tested. Which log2 fold change did it give?
Its log2 fold change is inactive: -0.054.

How did the log2 fold change turn out when KCTD3 (UniProt Q9Y597) was run?
The log2 fold change was inactive: 0.004.

Which log2 fold change does the source give for KIAA1143 (UniProt Q96AT1) here?
The log2 fold change was inactive: -0.033.

KHK isoform 2 (UniProt P50053) was tested. Which log2 fold change did it give?
Its log2 fold change is inactive: -0.067.

How did the log2 fold change turn out when KIF23 (UniProt Q02241) was run?
Its log2 fold change is inactive: -0.171.

Which log2 fold change does the source give for KIAA1522 isoform 2 (UniProt Q9P206) here?
Its log2 fold change is inactive: -0.001.

For KLF3 (UniProt P57682), which log2 fold change is on record?
Its log2 fold change is inactive: 0.013.

With KIF2A isoform 4 (UniProt O00139) as the target, how does the log2 fold change read?
The log2 fold change was inactive: -0.012.

For KIF5A (UniProt Q12840), which log2 fold change is on record?
The log2 fold change was inactive: 0.001.

How did the log2 fold change turn out when IVNS1ABP (UniProt Q9Y6Y0) was run?
Its log2 fold change is inactive: -0.195.

For KPNA3 (UniProt O00505), which log2 fold change is on record?
The log2 fold change was inactive: 0.031.

KIAA0319L (UniProt Q8IZA0) was tested. Which log2 fold change did it give?
The log2 fold change was inactive: 0.013.

How did the log2 fold change turn out when KCNAB2 (UniProt Q13303) was run?
Its log2 fold change is inactive: -0.014.

With KAZN isoform 3 (UniProt Q674X7) as the target, how does the log2 fold change read?
Its log2 fold change is inactive: 0.029.

KNSTRN (UniProt Q9Y448) was tested. Which log2 fold change did it give?
Its log2 fold change is inactive: -0.042.

With KDM5C (UniProt P41229) as the target, how does the log2 fold change read?
Its log2 fold change is inactive: 0.063.

Which log2 fold change does the source give for KLC1 isoform 6 (UniProt Q07866) here?
Its log2 fold change is inactive: 0.029.

Which log2 fold change does the source give for KBTBD2 (UniProt Q8IY47) here?
Its log2 fold change is inactive: 0.026.

How did the log2 fold change turn out when KLHL11 (UniProt Q9NVR0) was run?
Its log2 fold change is inactive: 0.06.

KDSR (UniProt Q06136) was tested. Which log2 fold change did it give?
The log2 fold change was inactive: 0.054.

For KIF5B (UniProt P33176), which log2 fold change is on record?
Its log2 fold change is inactive: 0.042.

For KIAA0100 (UniProt Q14667), which log2 fold change is on record?
The log2 fold change was inactive: -0.058.

How did the log2 fold change turn out when KHSRP (UniProt Q92945) was run?
Its log2 fold change is inactive: 0.035.

Which log2 fold change does the source give for KCTD9 (UniProt Q7L273) here?
Its log2 fold change is inactive: -0.001.

compound: CCCCN(Cc1ccc(C(=O)NO)cc1)C(=O)Nc1ccccc1 [Nexturastat A]; experiment: as above
How it was run: as §1

With KATNB1 (UniProt Q9BVA0) as the target, how does the log2 fold change read?
Its log2 fold change is inactive: 0.02.

How did the log2 fold change turn out when KMT2D isoform 3 (UniProt O14686) was run?
Its log2 fold change is inactive: -0.124.

For KCMF1 (UniProt Q9P0J7), which log2 fold change is on record?
Its log2 fold change is inactive: 0.127.

How did the log2 fold change turn out when JPT1 (UniProt Q9UK76) was run?
Its log2 fold change is inactive: 0.012.

How did the log2 fold change turn out when JUND (UniProt P17535) was run?
The log2 fold change was inactive: -0.04.

For JMJD1C (UniProt Q15652), which log2 fold change is on record?
Its log2 fold change is inactive: -0.007.

With KDM8 isoform 3 (UniProt Q8N371) as the target, how does the log2 fold change read?
The log2 fold change was inactive: -0.04.

JAGN1 (UniProt Q8N5M9) was tested. Which log2 fold change did it give?
The log2 fold change was inactive: -0.156.

How did the log2 fold change turn out when KIDINS220 (UniProt Q9ULH0) was run?
The log2 fold change was inactive: -0.028.

With KCTD15 (UniProt Q96SI1) as the target, how does the log2 fold change read?
Its log2 fold change is inactive: -0.081.

For KCTD3 (UniProt Q9Y597), which log2 fold change is on record?
The log2 fold change was inactive: 0.08.

With KIAA1143 (UniProt Q96AT1) as the target, how does the log2 fold change read?
Its log2 fold change is inactive: 0.081.

For KHK isoform 2 (UniProt P50053), which log2 fold change is on record?
Its log2 fold change is inactive: -0.04.

Which log2 fold change does the source give for KIF23 (UniProt Q02241) here?
Its log2 fold change is inactive: 0.035.

Which log2 fold change does the source give for KIAA1522 isoform 2 (UniProt Q9P206) here?
The log2 fold change was inactive: 0.187.

How did the log2 fold change turn out when KLF3 (UniProt P57682) was run?
Its log2 fold change is inactive: -0.029.

With KIF2A isoform 4 (UniProt O00139) as the target, how does the log2 fold change read?
Its log2 fold change is inactive: 0.11.

For KIF5A (UniProt Q12840), which log2 fold change is on record?
Its log2 fold change is inactive: -0.051.

For IVNS1ABP (UniProt Q9Y6Y0), which log2 fold change is on record?
Its log2 fold change is inactive: 0.192.

How did the log2 fold change turn out when KPNA3 (UniProt O00505) was run?
Its log2 fold change is inactive: -0.097.

Which log2 fold change does the source give for KIAA0319L (UniProt Q8IZA0) here?
Its log2 fold change is inactive: 0.011.

With KCNAB2 (UniProt Q13303) as the target, how does the log2 fold change read?
The log2 fold change was inactive: -0.02.

Which log2 fold change does the source give for KAZN isoform 3 (UniProt Q674X7) here?
The log2 fold change was inactive: 0.07.

For KNSTRN (UniProt Q9Y448), which log2 fold change is on record?
Its log2 fold change is inactive: 0.202.

Which log2 fold change does the source give for KDM5C (UniProt P41229) here?
Its log2 fold change is inactive: -0.09.

KLC1 isoform 6 (UniProt Q07866) was tested. Which log2 fold change did it give?
Its log2 fold change is inactive: -0.068.

KBTBD2 (UniProt Q8IY47) was tested. Which log2 fold change did it give?
The log2 fold change was inactive: -0.117.

KLHL11 (UniProt Q9NVR0) was tested. Which log2 fold change did it give?
The log2 fold change was inactive: 0.009.

Which log2 fold change does the source give for KDSR (UniProt Q06136) here?
The log2 fold change was inactive: -0.065.

With KIF5B (UniProt P33176) as the target, how does the log2 fold change read?
The log2 fold change was inactive: -0.03.

For KIAA0100 (UniProt Q14667), which log2 fold change is on record?
Its log2 fold change is inactive: -0.03.

Which log2 fold change does the source give for KHSRP (UniProt Q92945) here?
The log2 fold change was inactive: -0.093.

KCTD9 (UniProt Q7L273) was tested. Which log2 fold change did it give?
Its log2 fold change is inactive: -0.015.

compound: CCCS(=O)(=O)Nc1ccc(F)c(C(=O)c2c[nH]c3ncc(-c4ccc(Cl)cc4)cc23)c1F [vemurafenib]; experiment: as above
How it was run: as §1

For KATNB1 (UniProt Q9BVA0), which log2 fold change is on record?
The log2 fold change was inactive: -0.015.

Which log2 fold change does the source give for KMT2D isoform 3 (UniProt O14686) here?
Its log2 fold change is inactive: 0.009.

KCMF1 (UniProt Q9P0J7) was tested. Which log2 fold change did it give?
Its log2 fold change is inactive: -0.135.

For JPT1 (UniProt Q9UK76), which log2 fold change is on record?
The log2 fold change was inactive: 0.026.

How did the log2 fold change turn out when JUND (UniProt P17535) was run?
The log2 fold change was inactive: 0.003.

JMJD1C (UniProt Q15652) was tested. Which log2 fold change did it give?
Its log2 fold change is inactive: -0.012.

For KDM8 isoform 3 (UniProt Q8N371), which log2 fold change is on record?
The log2 fold change was inactive: -0.007.

How did the log2 fold change turn out when JAGN1 (UniProt Q8N5M9) was run?
Its log2 fold change is inactive: 0.042.

With KIDINS220 (UniProt Q9ULH0) as the target, how does the log2 fold change read?
The log2 fold change was inactive: -0.034.

KCTD15 (UniProt Q96SI1) was tested. Which log2 fold change did it give?
The log2 fold change was inactive: -0.031.

For KCTD3 (UniProt Q9Y597), which log2 fold change is on record?
The log2 fold change was inactive: -0.07.

How did the log2 fold change turn out when KIAA1143 (UniProt Q96AT1) was run?
The log2 fold change was inactive: -0.06.

How did the log2 fold change turn out when KHK isoform 2 (UniProt P50053) was run?
Its log2 fold change is inactive: -0.018.

For KIF23 (UniProt Q02241), which log2 fold change is on record?
Its log2 fold change is inactive: 0.128.

For KIAA1522 isoform 2 (UniProt Q9P206), which log2 fold change is on record?
Its log2 fold change is inactive: -0.135.

KLF3 (UniProt P57682) was tested. Which log2 fold change did it give?
The log2 fold change was inactive: -0.134.

KIF2A isoform 4 (UniProt O00139) was tested. Which log2 fold change did it give?
Its log2 fold change is inactive: -0.067.

Which log2 fold change does the source give for KIF5A (UniProt Q12840) here?
The log2 fold change was inactive: 0.005.

How did the log2 fold change turn out when IVNS1ABP (UniProt Q9Y6Y0) was run?
The log2 fold change was inactive: 0.038.

How did the log2 fold change turn out when KPNA3 (UniProt O00505) was run?
Its log2 fold change is inactive: 0.002.

KIAA0319L (UniProt Q8IZA0) was tested. Which log2 fold change did it give?
Its log2 fold change is inactive: -0.006.

With KCNAB2 (UniProt Q13303) as the target, how does the log2 fold change read?
The log2 fold change was inactive: 0.054.

Which log2 fold change does the source give for KAZN isoform 3 (UniProt Q674X7) here?
The log2 fold change was inactive: -0.033.

Which log2 fold change does the source give for KNSTRN (UniProt Q9Y448) here?
The log2 fold change was inactive: 0.031.

With KDM5C (UniProt P41229) as the target, how does the log2 fold change read?
The log2 fold change was inactive: 0.06.

How did the log2 fold change turn out when KLC1 isoform 6 (UniProt Q07866) was run?
The log2 fold change was inactive: 0.014.

How did the log2 fold change turn out when KBTBD2 (UniProt Q8IY47) was run?
The log2 fold change was inactive: -0.021.

How did the log2 fold change turn out when KLHL11 (UniProt Q9NVR0) was run?
Its log2 fold change is inactive: -0.078.

Which log2 fold change does the source give for KDSR (UniProt Q06136) here?
Its log2 fold change is inactive: -0.008.

How did the log2 fold change turn out when KIF5B (UniProt P33176) was run?
The log2 fold change was inactive: 0.037.

Which log2 fold change does the source give for KIAA0100 (UniProt Q14667) here?
The log2 fold change was inactive: 0.041.

KHSRP (UniProt Q92945) was tested. Which log2 fold change did it give?
Its log2 fold change is inactive: -0.015.

How did the log2 fold change turn out when KCTD9 (UniProt Q7L273) was run?
The log2 fold change was inactive: 0.008.
